Measurements reported in patent US20160367497A1, “METHODS AND COMPOSITIONS FOR TREATING NEUROPATHIES” (Washington University, priority 2007, published 2016).
At least one compound was matched to its structure with a doubt left.

Test system: DRG neuronal explant cultures
Assay: in vitro Wallerian degeneration assay, DRG explant neurite transection
Assay type: cell-based, mouse
Protocol: To identify the mechanism of delayed axonal degeneration mediated by the Wlds protein, we employed an in-vitro Wallerian degeneration model. Primary DRG explant neurons were infected with lentivirus expressing the appropriate proteins, and axons were injured by either removal of the neuronal cell body (transection) or growth in vincristine (toxic).
Mouse DRG explants from E12.5 embryos were cultured in the presence of 1 nM nerve growth factor. Non-neuronal cells were removed from the cultures by adding 5-fluorouracil to the culture medium. Transection of neurites was performed at 10-20 DIV using an 18-gauge needle to remove the neuronal cell bodies. Incubation with β-nicotinamide adenine dinucleotide (Sigma) or Sirtinol (Calbiochem) was performed using conditions indicated in the text or figures.
Quantitative analysis of axonal degeneration was performed as previously described (Zhai, et al., Neuron 39:217-25, 2003). Briefly, the cultures were examined using phase contrast microscopy at the indicated times. Axons with a fragmented, non-refractile appearance were designated as “degenerated.” At each time point, at least 200 singly distinguishable axons were blindly scored from several randomly taken images of each culture. Each condition was tested in triplicate explants in each experiment. Results were obtained from 2-4 independent experiments for each condition. Statistical analysis was performed by Student's T test. For calculations of neurite-covered area, digitally captured images from quadruplicate samples of two independent experiments were analyzed using analysis 3.1 software (Soft Imaging System, Lakewood, Colo.).
Cell culture, in vitro axotomy, and quantification of axonal degeneration. Mouse DRG explants from E12.5 embryos were cultured in the DMEM containing 10% FCS and 1 nM nerve growth factor. Non-neuronal cells were removed from the cultures by adding 5-fluorouracil to the culture media. Transection of neurites was performed at 14-21 DIV using an 18-gauge needle to remove the neuronal cell bodies. […] Quantitative analysis of neurite degeneration was performed.

Structure (SMILES): NC(=O)c1ccc[n+]([C@@H]2O[C@H](COP(=O)([O-])OP(=O)(O)OC[C@H]3O[C@@H](n4cnc5c(N)ncnc54)[C@H](O)[C@@H]3O)[C@@H](O)[C@H]2O)c1 [NAD, nicotinamide adenine dinucleotide]
- protective effects on axons (1 mM added at the time of axonal transection or up to 8 hr prior to injury): had no protective effects on axons
- axon sparing (1 mM, incubated for longer periods than 8 hr prior to injury, greatest after at least 24 h): significant axon sparing
- axonal degeneration after axotomy (0.1-1 mM added 24 hr prior to axotomy): significantly delayed axonal degeneration
